No constants are given. Whether binding was seen depends on the method and setting. Binding seen in cells or lysates may run through a third protein. Some binding calls cover weakened binding; strength is not graded here.

Sequences of proteins named here, by UniProt entry; tags and fusion partners are left off.
UniProt P09651: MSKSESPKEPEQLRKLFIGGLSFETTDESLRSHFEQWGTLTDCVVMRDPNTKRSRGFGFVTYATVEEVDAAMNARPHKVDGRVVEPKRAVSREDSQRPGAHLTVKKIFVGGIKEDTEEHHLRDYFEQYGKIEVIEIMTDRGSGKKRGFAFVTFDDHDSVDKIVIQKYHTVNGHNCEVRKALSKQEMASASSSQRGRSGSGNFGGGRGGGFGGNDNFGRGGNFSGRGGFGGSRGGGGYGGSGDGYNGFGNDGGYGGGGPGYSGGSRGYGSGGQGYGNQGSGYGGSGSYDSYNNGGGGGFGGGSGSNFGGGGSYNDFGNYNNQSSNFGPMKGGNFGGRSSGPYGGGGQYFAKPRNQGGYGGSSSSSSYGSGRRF
UniProt Q99873: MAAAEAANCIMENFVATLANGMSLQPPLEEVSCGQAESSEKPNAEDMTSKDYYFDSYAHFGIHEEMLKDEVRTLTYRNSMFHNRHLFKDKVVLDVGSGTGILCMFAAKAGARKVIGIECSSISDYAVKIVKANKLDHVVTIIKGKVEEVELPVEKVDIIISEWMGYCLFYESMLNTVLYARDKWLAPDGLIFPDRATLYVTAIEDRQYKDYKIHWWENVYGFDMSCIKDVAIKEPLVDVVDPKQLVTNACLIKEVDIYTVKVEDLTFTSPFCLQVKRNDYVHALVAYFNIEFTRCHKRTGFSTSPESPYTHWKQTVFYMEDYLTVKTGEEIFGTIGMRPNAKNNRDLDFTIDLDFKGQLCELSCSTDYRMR

The target in this assay is T7-tagged HNRNPA1 (HEK293T) (UniProt P09651). The experiment in a line: co-IP; HEK293T cells co-expressing T7-tagged HNRNPA1 and one of nine GFP-tagged PRMT family members.

Regarding “GFP-tagged PRMT1 (from UniProt Q99873 1-371) (enzyme)”, the binding result is recorded as “binds”.

The values above are taken from paper PMC11438962.
